PubChem BioAssay AID493246 – Drosophila RNAi Screening Center, 2011
Screen: 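Genes fly cells need to grow and stay alive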 (primary screen). Cell system: Drosophila Kc and S2R+ cells. Reagents: long dsRNA against Drosophila genes. Read-out: 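Cell number per well after knock-down, printed as raw plate values; calls were based on per-plate z-scores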. Scale: Kc cell number and S2R+ cell number: higher = more cells remaining. Call rule: 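Active when the per-plate z-score of cell number is 3 or more in the direction of fewer cells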.
The screen tested about 21,000 reagents; this is an unselected part of those that have a named target and a result. Over the whole deposit, 429 (2%) got an active call. 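Values are raw and not normalised between plates; calls rest on per-plate z-scores that were not deposited.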 Entries without a mark were called inactive. Reagents against one gene are numbered here. Names joined by + are all predicted targets of the reagent. Not stated in the record: the amount of reagent, the time to read-out.

gene | reagent | Kc cell number, rep 1 | Kc cell number, rep 2 | S2R+ cell number, rep 1 | S2R+ cell number, rep 2
CG3587 | 1 | 1.65e6 | 1.88e6 | 1.10e6 | 1.28e6
eas (easily shocked) | 1 | 1.66e6 | 1.65e6 | 1.17e6 | 1.34e6
Gr68a (Gustatory receptor 68a) | 1 | 1.28e6 | 1.45e6 | 1.23e6 | 1.37e6
CG6287 | 1 | 1.39e6 | 1.50e6 | 1.28e6 | 1.23e6
CG9135 | 1 | 1.21e6 | 1.26e6 | 5.93e5 | 8.67e5
ct (cut) | 1 | 1.04e6 | 1.08e6 | 7.87e5 | 9.20e5
sip3 (septin interacting protein 3) | 1 | 5.38e5 | – | 8.18e5 | –
ths (thisbe) | 1 | 1.20e6 | 1.44e6 | 8.04e5 | 9.05e5

The list goes on, starting with the last 3 of the part before.
gene | reagent | Kc cell number, rep 1 | Kc cell number, rep 2 | S2R+ cell number, rep 1 | S2R+ cell number, rep 2
ct (cut) | 1 | 1.04e6 | 1.08e6 | 7.87e5 | 9.20e5
sip3 (septin interacting protein 3) | 1 | 5.38e5 | – | 8.18e5 | –
ths (thisbe) | 1 | 1.20e6 | 1.44e6 | 8.04e5 | 9.05e5
lectin-33A | 1 | 1.47e6 | 1.56e6 | 1.20e6 | 1.31e6
Nxt1 (NTF2-related export protein 1) | 1 | 1.62e6 | 1.77e6 | 1.26e6 | 1.39e6
Vap33 (VAMP-associated protein 33kDa) | 1 | 6.23e5 | – | 8.35e5 | –
teq (Tequila) | 1 | 1.72e6 | 1.67e6 | 1.08e6 | 1.14e6
teq (Tequila) | 2 | 1.73e6 | 1.61e6 | 1.05e6 | 1.08e6
teq (Tequila) | 3 | 1.62e6 | 1.63e6 | 1.12e6 | 1.21e6
CG9795 | 1 | 1.44e6 | 1.50e6 | 1.33e6 | 1.36e6
Arpc3A (Actin-related protein 2/3 complex, subunit 3A) | 1 | 1.30e6 | 1.30e6 | 1.17e6 | 1.29e6
CG6689 | 1 | 1.59e6 | 1.73e6 | 1.44e6 | 1.58e6
CG16713 | 1 | 1.52e6 | 1.43e6 | 1.19e6 | 1.28e6
CG10359 | 1 | 1.31e6 | 1.42e6 | 1.26e6 | 1.16e6
CG18508 | 1 | 1.50e6 | 1.49e6 | 1.03e6 | 1.18e6
CG3355 | 1 | 1.44e6 | 1.43e6 | 1.14e6 | 1.25e6
CG14331 | 1 | 1.20e6 | 1.25e6 | 1.13e6 | 1.24e6
Kaz1-ORFB + Kaz1-ORFA | 1 | 1.24e6 | 1.14e6 | 9.73e5 | 1.25e6
ND1 (retired record) | 1 | 1.62e6 | 1.65e6 | 1.11e6 | 1.29e6
